Measurements reported in PubChem BioAssay AID1259405 (NCATS, 2018).

- Assay: 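Mouse-designed siRNAs used to find CHO productivity engineering targets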 (primary screen)
- Cells: Chinese hamster CHO-K1 ovary cells with stable secreted eGFP expression
- Knock-down reagent: single siRNA against mouse genes, 0.8 pmol siRNA per well (2 µl of 400 nM stock)
- Time to read-out: 3 days
- Detection: 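Percent of the per-plate non-targeting control median for intracellular GFP per well by laser scanning cytometry and for cell viability by ATP luminescence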
- Reading the numbers: GFP, % of control: higher = more GFP per well, higher productivity; viability (ATP), % of control: higher = more viable cells (more ATP)
- Rule for the call: 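a knock-down is called active if GFP reaches 120% or more of non-targeting control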
The deposit covers about 50,000 reagents; this is a part drawn at random. Over the whole deposit, about 4,000 (8%) are marked active. 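Mouse siRNA library applied to hamster cells; one well for each siRNA.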 Entries without a mark were called inactive. The numbers tell different reagents against one gene apart. No sequences are given here.

Knock-down of Crispld1 (GeneID 83691) #1 resulted in: GFP, % of control 126 (active); viability (ATP), % of control 106. Against Crispld1 (GeneID 83691) #2, the values are GFP, % of control 64.6; viability (ATP), % of control 68.6. After knock-down of Crispld1 (GeneID 83691) #3, the record shows GFP, % of control 150 (active); viability (ATP), % of control 177. Ccdc73 (GeneID 211936) #1 gave GFP, % of control 79.7; viability (ATP), % of control 63.2. Depletion of Ccdc73 (GeneID 211936) #2 gave: GFP, % of control 71.6; viability (ATP), % of control 68.2. Ccdc73 (GeneID 211936) #3 showed GFP, % of control 116; viability (ATP), % of control 125.

Against Cox6c (GeneID 12864) #1 the deposit lists GFP, % of control 117; viability (ATP), % of control 68. Against Cox6c (GeneID 12864) #2, the values are GFP, % of control 78.5; viability (ATP), % of control 72.5. Knock-down of Vmn1r189 (GeneID 252906) #1 came out at: GFP, % of control 52.4; viability (ATP), % of control 52.5. Against Vmn1r189 (GeneID 252906) #2 the deposit lists GFP, % of control 112; viability (ATP), % of control 61.5. Silencing of Vmn1r189 (GeneID 252906) #3 gave: GFP, % of control 74; viability (ATP), % of control 83.3. Depletion of Rabif (GeneID 98710) #1 came out at: GFP, % of control 129 (active); viability (ATP), % of control 102.

Rabif (GeneID 98710) #2 showed GFP, % of control 84.4; viability (ATP), % of control 57.3. For Rabif (GeneID 98710) #3, the values are GFP, % of control 92.3; viability (ATP), % of control 56. Akp3 (GeneID 11648) #1 showed GFP, % of control 53.4; viability (ATP), % of control 103. Akp3 (GeneID 11648) #2 scored GFP, % of control 76.5; viability (ATP), % of control 71.8. With knock-down of Akp3 (GeneID 11648) #3, the record shows GFP, % of control 47.4; viability (ATP), % of control 60.9.
